For the experiment, the system named is TNF-α. The experiment can be described thus: LPS stimulation of TNF production by U937 cells. Type of experiment: cell-based. Particulars: read-out: U937 Cell IC50, LPS-stimulated human U937 cells.

Structures were worked out from names or drawings and are uncertain.

A word on the IC50: it is the concentration that gives 50% inhibition. In the case of `CN(C)C(=O)NCc1[nH]nc(-c2ccc(F)cc2)c1-c1ccncc1`, the half-inhibitory concentration (IC50) is > 1 µM.

The record behind these values is patent US6525059B1, “Substituted pyrazoles as p38 kinase inhibitors” (G. D. Searle & Company, priority 1998, dated 2003).
